# Data published in the supplement of paper PMC6821926, “Diaminoquinazoline MMV675968 from Pathogen Box inhibits Acinetobacter baumannii growth through targeting of dihydrofolate reductase” (Scientific Reports, 2019).
# ± gives the uncertainty stated by the source. The list shows a part of the results.
# Key:
# [1] = system: Acinetobacter baumannii Mahidol; experiment: percent growth relative to DMSO-treated control; higher = less growth inhibition; conditions: 10 µM; 18 h
# [2] = system: Acinetobacter baumannii Naval-81; experiment: as above; conditions: 10 µM; 18 h
Structure (SMILES),percent growth [1],percent growth [2]
CO/C=C(/C(=O)OC)c1ccccc1Oc1cc(Oc2ccccc2C#N)ncn1,125 ± 17%,85.9 ± 21%
CC1(C)OB(O)c2ccc(C3=NOC(c4cc(Cl)c(F)c(Cl)c4)(C(F)(F)F)C3)cc21 (stereo not drawn),84 ± 16%,50.5 ± 47%
CO[C@@H]1CN(c2ccc(C#CC3(O)CN4CCC3CC4)c(Cc3ccccc3)n2)C[C@H]1O (stereo partly drawn),107 ± 8.6%,71 ± 41%
Cc1cc(C2=NOC(c3cc(Cl)c(F)c(Cl)c3)(C(F)(F)F)C2)ccc1C(=O)NCc1ccc2c(c1)C(C)(C)OB2O (stereo not drawn),85.8 ± 34%,84.9 ± 14%
CCc1nn(C)c(C(=O)NCc2ccc(Oc3ccc(C)cc3)cc2)c1Cl,71.2 ± 32%,89 ± 2.9%
Cc1nn(C)c(C)c1NS(=O)(=O)c1c(Cl)cc(-c2ccnc(N3CCNCC3)c2)cc1Cl,99.5 ± 7.1%,103 ± 4%
CC1COC(Cn2cncn2)(c2ccc(Oc3ccc(Cl)cc3)cc2Cl)O1 (stereo not drawn),90.6 ± 14%,52.5 ± 24%
O=C1O[C@@H](COc2ccon2)CN1c1cc(F)c(C2=CCN(Cc3ccccc3)CC2)c(F)c1,98.7 ± 5.3%,79.7 ± 5.4%
Cc1nn(Cc2ccccc2)c(Cl)c1C(=O)NC1CCCCCC1,91.8 ± 43%,82.3 ± 13%
Nc1c2c(nc3sc4c(c13)CCCC4)CCCC2,106 ± 16%,104 ± 35%
CO/N=C(\C(=O)OC)c1ccccc1CO/N=C(\C)c1cccc(C(F)(F)F)c1,99.8 ± 4.4%,90.1 ± 14%
Cc1cccc(C(=O)Nc2ccnc(N(C)C3CCN(CC(C)C)CC3)c2)c1,87.1 ± 11%,80.2 ± 7.9%
O=C1O[C@@H](CO)CN1c1cc(F)c(C2=CCN(Cc3ccccc3)CC2)c(F)c1,96.3 ± 3.9%,97.9 ± 16%
CC(C)(C)C(O)C(Oc1ccc(-c2ccccc2)cc1)n1cncn1 (stereo not drawn),95.3 ± 12%,113 ± 32%

# 3 entries out of the list, arranged by number of heavy atoms, smallest number first:
Structure (SMILES),percent growth [1],percent growth [2]
CCc1nn(C)c(C(=O)NCc2ccc(Oc3ccc(C)cc3)cc2)c1Cl,71.2 ± 32%,89 ± 2.9%
CO/C=C(/C(=O)OC)c1ccccc1Oc1cc(Oc2ccccc2C#N)ncn1,125 ± 17%,85.9 ± 21%
CO[C@@H]1CN(c2ccc(C#CC3(O)CN4CCC3CC4)c(Cc3ccccc3)n2)C[C@H]1O (stereo partly drawn),107 ± 8.6%,71 ± 41%
